Experimental findings from doi:10.1101/2023.04.04.535523 are described below.

For this experiment, the target named is mCherry-PIF6 (N-terminal Cys residue) (A. thaliana) (UniProt Q8L5W7). Nature of the experiment: SEC. (In gel filtration, larger molecules generally elute earlier.)

These are yes or no findings as the source states them, for the method shown.

On to “mCherry-PIF6 (N-terminal Cys residue) (from UniProt Q8L5W7 1-100)”, for which the binding result is “no binding”.
